Results on 1 compound are retold here after patent US12612389B2, “Benzofuran-based N-acylhydrazone derivative and pharmaceutical composition comprising same” (KOREA RESEARCH INSTITUTE OF BIOSCIENCE AND BIOTECHNOLOGY, priority 2019, dated 2026).

The structures appear in SMILES notation.

What all share (type): cell-based
One experiment deals with K562. The experiment is described as follows: Anti-proliferative activity test in cancer cells exhibiting multidrug resistance (MTT), parent line. Particulars: Homo sapiens, K562, 96 h. As for the experimental part: (§1) HeLa cells (American Type Culture Collection: ATCC, USA), a human cervical cancer cell line, were seeded in a 96-well plate at 3×10^3 cells/well, and the cells were then treated with compounds of Examples or Comparative Example according to the present invention and grown for 2 days. Then, MTT (3-(4,5-dimethylthiazol-2-yl)-2,5-diphenyltetrazolium bromide) reagent was added at 10 μL/well. […] The data shown in Table below are mean values of results obtained by repeating the analysis twice. Specifically, K562 and MCF7 (Bio Evaluation Center, Korea Research Institute of Bioscience and Biotechnology, Korea) and multidrug-resistant cell lines of each of these cell lines, i.e., K562/ADR and MCF7/ADR (Bio Evaluation Center, Korea Research Institute of Bioscience and Biotechnology, Korea), were cultured on microtiter plates (1-3×10^3 cells/well). […] The data shown in Table below are mean values of results obtained by repeating the analysis three times.

The test system of the next experiment is MCF7. The experiment is described as above. Particulars: Homo sapiens, MCF7, 96 h. How it is done: as §1
The next experiment deals with MCF7/ADR. The experiment is described as follows: Anti-proliferative activity test in cancer cells exhibiting multidrug resistance (MTT). Particulars: Homo sapiens, NCI/ADR-RES, 96 h. How it is done:
as §1

In the case of `COc1cc2c(c(OC)c1OC)-c1ccc(OC)c(=O)cc1[C@@H](NC(C)=O)CC2` [Colchicine, colchicine], the IC50 (in general, the concentration that gives 50% inhibition) was found to be 15.9 nM with K562, 2.71 nM in the experiment with MCF7 and 92.5 nM in the experiment with MCF7/ADR.
